# PubChem BioAssay AID1259308 | NCATS | 2017
# Assay: 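Genes whose loss raises luciferase production in HEK293 cells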 (primary screen)
# Cell system: human HEK293 embryonic kidney cells stably expressing firefly luciferase (HEK-CMV-Luc2-Hygro)
# Knock-down reagent: single siRNA against human genes, 0.8 pmol siRNA per well
# Time to read-out: 72 h
# Measurement: 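Luciferase light (ONE-Glo) measured on one replicate plate set and viability (CellTiter-Glo) on the other, scaled to a negative control siRNA, with robust z-scores and luciferase per cell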
# Reading the numbers: total luciferase, z-score and total luciferase, % of control: higher = more reporter protein produced; luciferase per cell, z-score: higher = more reporter output per viable cell; viable cells, % of control: higher = more viable cells
# Hit rule: 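An siRNA counts as active if its total luciferase robust z-score exceeds 3; genes with two or more such siRNAs out of three were retested with fresh siRNAs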
# Meaning of the calls: active = raised luciferase; inactive = no rise
# Shown is a random part of about 59,000 deposited reagents. Over the whole deposit, about 1,510 (2.6%) got an active call. 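Calls use total luciferase alone and ignore viability, so some active siRNAs may act by altering cell number.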 Unmarked entries are inactive. Reagents against one gene are numbered here.
gene knocked down,reagent,"total luciferase, z-score","total luciferase, % of control","luciferase per cell, z-score","viable cells, % of control"
PNMA2,1,9.02 (active),261,4.79,82.7
PNMA2,2,-1.12,59.7,-1.22,91.9
PNMA2,3,1.09,104,1.06,87.6
FXYD1,1,2.97,141,2.85,74.3
FXYD1,2,0.916,100,0.89,88.5
FXYD1,3,-1.25,57.1,-1.5,94.7
FAM226B,1,-0.903,63.9,-1.02,93.4
FAM226B,2,0.307,88,0.492,86.4
FAM226B,3,0.208,86,0.231,90.4
FAM226B,4,-0.26,76.7,0.0674,84.2
FAM226B,5,0.359,89,0.345,90.8
FAM226B,6,0.576,93.3,1.55,69.3
OR1D2,1,0.0131,82.1,-0.496,105
OR1D2,2,1.55,113,1.16,92.8
OR1D2,3,1.78,117,1.5,88.4
ACCSL,1,-1.94,43.2,-1.57,72.9
ACCSL,2,-0.5,71.9,-0.464,90.8
ACCSL,3,-0.667,68.6,-0.253,82
PSD,1,0.441,90.7,-0.0837,104
PSD,2,0.000289,81.9,-0.324,99.7
PSD,3,3.67 (active),155,2.03,101
AOC2,1,-1.05,61,-0.44,76.5
AOC2,2,0.708,96,0.361,97.5
AOC2,3,-0.266,76.6,-0.127,88.5
OR1J1,1,-1.34,55.3,-0.754,75.3
OR1J1,2,-0.474,72.5,-0.0388,81.8
OR1J1,3,1.23,106,1.17,87.4
KPNA6,1,-0.647,69,-0.0966,79.1
KPNA6,2,0.6,93.8,0.551,90.7
KPNA6,3,-1.67,48.7,-0.584,63.4
ATP6AP1,1,0.256,87,-0.0117,97.5
ATP6AP1,2,-1.61,49.9,-1.61,85.3
ATP6AP1,3,1.97,121,1.23,97.9
SCRT1,1,0.199,85.8,-0.358,105
SCRT1,2,-0.18,78.3,0.44,77.9
SCRT1,3,0.158,85,0.18,90.6
MAB21L1,1,-0.54,71.1,0.633,67.3
MAB21L1,2,0.557,93,0.655,87.4
MAB21L1,3,-1.56,50.8,-0.865,71.3

An excerpt from above, reduced to “total luciferase, % of control”.
OR1J1 #2	72.5
OR1J1 #3	106
KPNA6 #1	69
KPNA6 #2	93.8
KPNA6 #3	48.7
ATP6AP1 #1	87
